From publication PMC7812317
Results are given in words; binding and its absence hold for the method and conditions named. Binding seen in cells or lysates may run through a third protein. Some entries that bind do so weakly or less than the wild type.

Sequences of proteins named here, by UniProt entry; tags and fusion partners are left off.
UniProt P53350: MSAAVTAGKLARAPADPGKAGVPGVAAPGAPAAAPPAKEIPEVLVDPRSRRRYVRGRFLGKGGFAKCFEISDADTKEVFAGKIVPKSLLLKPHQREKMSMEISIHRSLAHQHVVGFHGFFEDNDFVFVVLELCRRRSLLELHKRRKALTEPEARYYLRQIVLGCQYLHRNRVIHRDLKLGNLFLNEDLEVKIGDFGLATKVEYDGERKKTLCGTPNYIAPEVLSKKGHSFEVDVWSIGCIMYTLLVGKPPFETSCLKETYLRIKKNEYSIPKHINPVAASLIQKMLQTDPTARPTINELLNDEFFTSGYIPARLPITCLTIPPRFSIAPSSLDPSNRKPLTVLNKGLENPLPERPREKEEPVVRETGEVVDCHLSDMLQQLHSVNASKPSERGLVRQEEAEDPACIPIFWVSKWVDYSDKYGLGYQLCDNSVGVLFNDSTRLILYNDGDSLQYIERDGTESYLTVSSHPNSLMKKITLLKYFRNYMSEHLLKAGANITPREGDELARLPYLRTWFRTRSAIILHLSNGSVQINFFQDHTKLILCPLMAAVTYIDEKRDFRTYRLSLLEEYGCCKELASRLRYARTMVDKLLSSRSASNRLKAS

Experiments:
[1] = target: Polo-like kinase 1 (human (endogenous in hTERT-RPE1)) (UniProt P53350); assay: co-IP; anti-PLK1 antibody (IgG overnight at 4°C, Protein A/G Ultralink beads) on 2 mg cytoplasmic extract of RPE cells synchronised in G2; blots of bound proteins
[2] = target: Cyclin A2 (human (endogenous in hTERT-RPE1)) (UniProt P20248); assay: co-IP; anti-CycA2 antibody (1-1.5 ug IgG overnight at 4°C, Protein A/G Ultralink beads) on 2 mg cytoplasmic extract of RPE cells synchronised in G2; 150 mM NaCl, 0.1% Triton X-100; blots of bound proteins
[3] = target: Cyclin A2 (human (endogenous in hTERT-RPE1)) (UniProt P20248); assay: co-IP; anti-CycA2 antibody (1-1.5 ug IgG overnight at 4°C, Protein A/G Ultralink beads) on 2 mg nuclear extract of RPE cells synchronised in G2; 150 mM NaCl, 0.1% NP-40; blots of bound proteins

binding [1]	binding [2]	Substance	binding [3]
binds	binds	Bora (from UniProt Q6PGQ7 1-559)	
	binds	Polo-like kinase 1 (from UniProt P53350 1-603) (enzyme)	no binding (condition: in the nuclear extract)
